Reference: PMC10501989
Results are given in words; binding and its absence hold for the method and conditions named. Binding seen in cells or lysates may run through a third protein. Some results given as binding are weak or reduced against the parent protein; the word gives no strength.

By UniProt entry, the sequences of proteins in these tests, tags left out.
UniProt Q3TKT4: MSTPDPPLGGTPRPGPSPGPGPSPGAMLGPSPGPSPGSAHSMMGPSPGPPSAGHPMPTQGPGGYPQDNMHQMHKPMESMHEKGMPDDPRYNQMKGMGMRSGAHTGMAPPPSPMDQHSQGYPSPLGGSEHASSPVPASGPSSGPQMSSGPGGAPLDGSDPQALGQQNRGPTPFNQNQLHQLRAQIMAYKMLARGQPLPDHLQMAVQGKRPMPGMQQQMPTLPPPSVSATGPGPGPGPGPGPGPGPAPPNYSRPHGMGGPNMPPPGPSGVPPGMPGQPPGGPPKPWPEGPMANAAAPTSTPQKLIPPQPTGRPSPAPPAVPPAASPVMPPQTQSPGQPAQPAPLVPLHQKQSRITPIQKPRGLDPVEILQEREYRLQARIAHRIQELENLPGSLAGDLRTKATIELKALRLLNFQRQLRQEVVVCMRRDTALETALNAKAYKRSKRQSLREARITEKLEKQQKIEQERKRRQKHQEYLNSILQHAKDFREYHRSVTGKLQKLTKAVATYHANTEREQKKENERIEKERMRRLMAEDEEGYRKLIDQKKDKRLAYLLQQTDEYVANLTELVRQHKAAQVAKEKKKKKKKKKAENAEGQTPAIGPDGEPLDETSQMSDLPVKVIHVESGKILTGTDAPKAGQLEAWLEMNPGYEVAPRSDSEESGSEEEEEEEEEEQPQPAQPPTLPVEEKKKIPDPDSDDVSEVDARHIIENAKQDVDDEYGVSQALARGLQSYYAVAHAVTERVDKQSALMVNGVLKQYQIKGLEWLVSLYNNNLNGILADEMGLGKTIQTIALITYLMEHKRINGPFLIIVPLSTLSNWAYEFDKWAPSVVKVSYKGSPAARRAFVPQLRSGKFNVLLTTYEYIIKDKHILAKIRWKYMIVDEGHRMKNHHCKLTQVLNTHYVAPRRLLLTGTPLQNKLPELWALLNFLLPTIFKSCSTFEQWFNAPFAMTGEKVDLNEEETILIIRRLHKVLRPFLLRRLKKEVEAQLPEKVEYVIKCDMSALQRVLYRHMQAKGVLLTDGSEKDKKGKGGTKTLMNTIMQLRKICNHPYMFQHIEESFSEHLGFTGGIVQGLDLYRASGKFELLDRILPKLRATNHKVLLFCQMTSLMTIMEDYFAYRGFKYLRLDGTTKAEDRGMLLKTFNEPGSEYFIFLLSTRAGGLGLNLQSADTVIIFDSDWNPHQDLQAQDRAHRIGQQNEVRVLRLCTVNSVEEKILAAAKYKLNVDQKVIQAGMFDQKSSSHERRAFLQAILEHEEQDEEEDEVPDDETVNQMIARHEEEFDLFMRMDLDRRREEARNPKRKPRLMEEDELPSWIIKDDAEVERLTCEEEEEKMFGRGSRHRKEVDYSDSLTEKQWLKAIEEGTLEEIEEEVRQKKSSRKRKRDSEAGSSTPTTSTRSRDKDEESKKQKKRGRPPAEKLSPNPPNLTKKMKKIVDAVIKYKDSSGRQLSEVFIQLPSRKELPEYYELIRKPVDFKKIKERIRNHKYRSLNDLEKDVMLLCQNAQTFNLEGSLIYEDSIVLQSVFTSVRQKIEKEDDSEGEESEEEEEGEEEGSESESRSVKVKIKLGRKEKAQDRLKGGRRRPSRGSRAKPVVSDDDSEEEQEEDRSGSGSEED
UniProt Q6PDQ2: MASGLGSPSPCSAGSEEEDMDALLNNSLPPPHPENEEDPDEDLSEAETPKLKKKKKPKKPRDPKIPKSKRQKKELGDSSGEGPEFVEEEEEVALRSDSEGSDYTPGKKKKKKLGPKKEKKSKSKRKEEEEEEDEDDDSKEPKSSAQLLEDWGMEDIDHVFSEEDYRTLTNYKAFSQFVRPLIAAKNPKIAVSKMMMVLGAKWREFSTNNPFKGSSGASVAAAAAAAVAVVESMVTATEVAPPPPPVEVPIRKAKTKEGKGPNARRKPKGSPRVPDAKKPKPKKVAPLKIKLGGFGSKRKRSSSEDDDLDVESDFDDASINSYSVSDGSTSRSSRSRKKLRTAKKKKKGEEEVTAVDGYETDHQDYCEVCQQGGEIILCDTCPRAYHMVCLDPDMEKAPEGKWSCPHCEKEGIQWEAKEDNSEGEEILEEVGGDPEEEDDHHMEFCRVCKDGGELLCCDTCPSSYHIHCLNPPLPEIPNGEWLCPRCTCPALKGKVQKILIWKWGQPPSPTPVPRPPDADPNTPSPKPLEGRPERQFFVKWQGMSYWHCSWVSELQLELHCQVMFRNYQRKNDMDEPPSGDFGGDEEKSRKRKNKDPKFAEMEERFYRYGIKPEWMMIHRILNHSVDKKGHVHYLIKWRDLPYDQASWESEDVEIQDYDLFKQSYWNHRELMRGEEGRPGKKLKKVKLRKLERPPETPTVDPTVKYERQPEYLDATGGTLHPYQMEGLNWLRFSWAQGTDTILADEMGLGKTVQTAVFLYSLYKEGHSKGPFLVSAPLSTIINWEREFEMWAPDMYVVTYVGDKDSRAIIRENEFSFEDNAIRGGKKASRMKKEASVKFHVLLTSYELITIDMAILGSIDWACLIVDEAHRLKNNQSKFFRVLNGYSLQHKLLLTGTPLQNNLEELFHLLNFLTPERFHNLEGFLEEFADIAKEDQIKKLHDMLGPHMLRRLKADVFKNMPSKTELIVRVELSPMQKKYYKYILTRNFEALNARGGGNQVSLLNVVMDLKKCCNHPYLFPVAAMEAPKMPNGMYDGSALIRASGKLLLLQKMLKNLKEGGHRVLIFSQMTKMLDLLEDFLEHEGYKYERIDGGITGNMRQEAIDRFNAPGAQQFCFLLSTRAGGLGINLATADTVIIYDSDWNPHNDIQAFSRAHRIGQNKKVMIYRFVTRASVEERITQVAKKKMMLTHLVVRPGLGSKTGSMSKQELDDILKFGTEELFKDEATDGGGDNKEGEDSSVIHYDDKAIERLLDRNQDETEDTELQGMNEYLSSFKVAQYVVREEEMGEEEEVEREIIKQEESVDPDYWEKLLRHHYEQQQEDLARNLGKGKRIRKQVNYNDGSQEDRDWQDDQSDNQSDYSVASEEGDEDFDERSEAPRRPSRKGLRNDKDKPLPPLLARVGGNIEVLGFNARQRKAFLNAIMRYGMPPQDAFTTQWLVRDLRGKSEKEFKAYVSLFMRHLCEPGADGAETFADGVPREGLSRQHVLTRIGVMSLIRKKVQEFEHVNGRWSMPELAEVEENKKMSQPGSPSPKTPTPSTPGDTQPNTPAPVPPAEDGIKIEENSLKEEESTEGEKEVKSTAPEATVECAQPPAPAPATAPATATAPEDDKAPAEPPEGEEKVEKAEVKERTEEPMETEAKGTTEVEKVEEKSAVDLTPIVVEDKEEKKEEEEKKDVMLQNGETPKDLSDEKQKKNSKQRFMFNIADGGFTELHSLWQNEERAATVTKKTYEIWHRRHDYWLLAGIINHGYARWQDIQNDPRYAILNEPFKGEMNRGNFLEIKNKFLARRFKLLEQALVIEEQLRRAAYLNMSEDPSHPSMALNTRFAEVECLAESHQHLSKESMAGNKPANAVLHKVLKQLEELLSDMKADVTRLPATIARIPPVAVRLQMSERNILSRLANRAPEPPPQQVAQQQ

Legend:
Experiment in all cases: co-IP; Th2 cell nuclear lysate (50 mM Tris pH 8.0, 1 mM EDTA, 150 mM NaCl, 1% NP40, 5% glycerol); antibody to the endogenous bait (anti-ADNP, anti-BRG1 or anti-BATF) overnight at 4 °C, protein A/G Dynabeads, immunoblot
[1] = biological target: T1, BATF (mouse (endogenous in Th2 cells)) (UniProt O35284)
T1 sequence: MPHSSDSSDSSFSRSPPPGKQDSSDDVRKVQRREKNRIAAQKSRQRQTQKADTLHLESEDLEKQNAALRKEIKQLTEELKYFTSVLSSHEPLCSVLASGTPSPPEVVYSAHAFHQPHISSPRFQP

[2] = biological target: T2, activity-dependent neuroprotector homeobox protein (ADNP) (mouse (endogenous in Th2 cells)) (UniProt Q9Z103)
T2 sequence: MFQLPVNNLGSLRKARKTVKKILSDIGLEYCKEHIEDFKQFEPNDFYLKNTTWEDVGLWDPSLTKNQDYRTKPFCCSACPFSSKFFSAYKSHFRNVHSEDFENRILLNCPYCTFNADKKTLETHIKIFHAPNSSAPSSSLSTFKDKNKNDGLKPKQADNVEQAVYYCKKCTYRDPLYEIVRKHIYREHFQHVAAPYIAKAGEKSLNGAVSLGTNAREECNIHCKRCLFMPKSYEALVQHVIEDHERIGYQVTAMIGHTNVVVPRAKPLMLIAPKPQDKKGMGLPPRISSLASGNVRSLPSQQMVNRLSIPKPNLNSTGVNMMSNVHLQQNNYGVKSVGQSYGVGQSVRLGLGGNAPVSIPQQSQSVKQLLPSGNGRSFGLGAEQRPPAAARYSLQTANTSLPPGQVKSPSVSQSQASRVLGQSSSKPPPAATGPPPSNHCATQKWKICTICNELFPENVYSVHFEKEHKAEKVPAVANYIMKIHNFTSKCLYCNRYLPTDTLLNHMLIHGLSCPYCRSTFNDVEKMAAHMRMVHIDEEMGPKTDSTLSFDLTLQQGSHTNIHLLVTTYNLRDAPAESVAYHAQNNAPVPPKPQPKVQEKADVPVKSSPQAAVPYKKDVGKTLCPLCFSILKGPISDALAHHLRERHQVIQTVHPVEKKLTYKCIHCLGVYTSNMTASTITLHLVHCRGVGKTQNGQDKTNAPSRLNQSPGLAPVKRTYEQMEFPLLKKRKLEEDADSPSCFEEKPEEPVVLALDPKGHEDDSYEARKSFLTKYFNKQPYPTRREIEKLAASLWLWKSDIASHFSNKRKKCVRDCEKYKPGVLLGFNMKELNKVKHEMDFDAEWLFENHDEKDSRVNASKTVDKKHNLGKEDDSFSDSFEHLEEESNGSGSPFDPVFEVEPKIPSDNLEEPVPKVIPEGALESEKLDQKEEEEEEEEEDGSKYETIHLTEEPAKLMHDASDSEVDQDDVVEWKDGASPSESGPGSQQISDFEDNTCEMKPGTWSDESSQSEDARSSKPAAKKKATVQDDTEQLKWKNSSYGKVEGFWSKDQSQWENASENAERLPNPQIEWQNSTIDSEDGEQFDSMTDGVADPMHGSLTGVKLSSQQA

[3] = biological target: Brahma-related gene-1 (BRG1, encoded by Smarca4) (mouse (endogenous in Th2 cells)) (UniProt Q3TKT4)

Q: What does the source list for “Brahma-related gene-1 (BRG1, encoded by Smarca4) (from UniProt Q3TKT4 1-1613)”?
A: binding [1]: binds; binding [2]: binds

Q: For CHD4 (from UniProt Q6PDQ2 1-1915), which binding [2] is on record?
A: binds

B1: activity-dependent neuroprotector homeobox protein (ADNP) (protein, UniProt Q9Z103 1-1108)
chain: MFQLPVNNLGSLRKARKTVKKILSDIGLEYCKEHIEDFKQFEPNDFYLKNTTWEDVGLWDPSLTKNQDYRTKPFCCSACPFSSKFFSAYKSHFRNVHSEDFENRILLNCPYCTFNADKKTLETHIKIFHAPNSSAPSSSLSTFKDKNKNDGLKPKQADNVEQAVYYCKKCTYRDPLYEIVRKHIYREHFQHVAAPYIAKAGEKSLNGAVSLGTNAREECNIHCKRCLFMPKSYEALVQHVIEDHERIGYQVTAMIGHTNVVVPRAKPLMLIAPKPQDKKGMGLPPRISSLASGNVRSLPSQQMVNRLSIPKPNLNSTGVNMMSNVHLQQNNYGVKSVGQSYGVGQSVRLGLGGNAPVSIPQQSQSVKQLLPSGNGRSFGLGAEQRPPAAARYSLQTANTSLPPGQVKSPSVSQSQASRVLGQSSSKPPPAATGPPPSNHCATQKWKICTICNELFPENVYSVHFEKEHKAEKVPAVANYIMKIHNFTSKCLYCNRYLPTDTLLNHMLIHGLSCPYCRSTFNDVEKMAAHMRMVHIDEEMGPKTDSTLSFDLTLQQGSHTNIHLLVTTYNLRDAPAESVAYHAQNNAPVPPKPQPKVQEKADVPVKSSPQAAVPYKKDVGKTLCPLCFSILKGPISDALAHHLRERHQVIQTVHPVEKKLTYKCIHCLGVYTSNMTASTITLHLVHCRGVGKTQNGQDKTNAPSRLNQSPGLAPVKRTYEQMEFPLLKKRKLEEDADSPSCFEEKPEEPVVLALDPKGHEDDSYEARKSFLTKYFNKQPYPTRREIEKLAASLWLWKSDIASHFSNKRKKCVRDCEKYKPGVLLGFNMKELNKVKHEMDFDAEWLFENHDEKDSRVNASKTVDKKHNLGKEDDSFSDSFEHLEEESNGSGSPFDPVFEVEPKIPSDNLEEPVPKVIPEGALESEKLDQKEEEEEEEEEDGSKYETIHLTEEPAKLMHDASDSEVDQDDVVEWKDGASPSESGPGSQQISDFEDNTCEMKPGTWSDESSQSEDARSSKPAAKKKATVQDDTEQLKWKNSSYGKVEGFWSKDQSQWENASENAERLPNPQIEWQNSTIDSEDGEQFDSMTDGVADPMHGSLTGVKLSSQQA
Q: How did the binding [1] turn out when B1 was run?
A: binds

Q: And the binding [3]?
A: binds

B2: BATF (protein, UniProt O35284 1-125)
chain: MPHSSDSSDSSFSRSPPPGKQDSSDDVRKVQRREKNRIAAQKSRQRQTQKADTLHLESEDLEKQNAALRKEIKQLTEELKYFTSVLSSHEPLCSVLASGTPSPPEVVYSAHAFHQPHISSPRFQP
Q: For B2, which binding [2] is on record?
A: binds

B3: JUNB (protein, UniProt P09450 1-344)
chain: MCTKMEQPFYHDDSYAAAGYGRSPGSLSLHDYKLLKPTLALNLADPYRGLKGPGARGPGPEGSGAGSYFSGQGSDTGASLKLASTELERLIVPNSNGVITTTPTPPGQYFYPRGGGSGGGTGGGVTEEQEGFADGFVKALDDLHKMNHVTPPNVSLGASGGPQAGPGGVYAGPEPPPVYTNLSSYSPASAPSGGSGTAVGTGSSYPTATISYLPHAPPFAGGHPAQLGLSRGASAFKEEPQTVPEARSRDATPPVSPINMEDQERIKVERKRLRNRLAATKCRKRKLERIARLEDKVKTLKAENAGLSSAAGLLREQVAQLKQKVMTHVSNGCQLLLGVKGHAF
Q: Which binding [1] does the source give for B3 here?
A: binds
